# Data as given in patent US4005194A (Abbott Laboratories, priority 1975, dated 1977).
# Strings that start with PEPTIDE1 are HELM notation: dots part the residues, brackets hold end groups and non-standard residues.
# Test: general procedure: Boc solid-phase peptide synthesis; chloromethylated divinylbenzene-styrene copolymer (Bio-Rad Merrifield resin), 2% cross linking, 0.47 millimoles of proli
# Conditions: whole synthesis, overall, scale of the general procedure 4.6 g of resin
substance,measurement,value
PEPTIDE1{[pGlu].H.W.S.Y.[dL].L.R.P.[NHEt]}$$$$V2.0,isolated yield,25%
